{"source": "patent US9827315B2", "about": "“Compositions of pharmaceutical actives containing diethylene glycol monoethyl ether or other alkyl derivatives” (THEMIS MEDICARE LIMITED, priority 2013, dated 2017)", "origin": "cited, not measured here", "settings": "cited from earlier work", "note": "At least one compound was matched to its structure with a doubt left.", "data": [{"smiles": "C[C@H]1[C@H](OC(=O)CCC(=O)[O-])O[C@@H]2O[C@@]3(C)CC[C@H]4[C@H](C)CC[C@@H]1[C@@]24OO3.[Na+]", "note": "[sodium Artesunate]", "values": [{"measurement": "Stability (descriptive)", "result": "poor stability in aqueous solutions"}]}]}
